According to PubChem BioAssay AID540276 (National Center for Advancing Translational Sciences (NCATS), 2011):
In all, about 300,000 compounds went through this assay and about 5,400 (1.8%) were called active. Inconclusive means that the source gave no clear call. Such entries were picked first, then a sample of the others. The call rests on the fitted dose curve; tested in HEK293 cells. Potencies beside an inconclusive call are fits to weak or partial responses and may not hold up.

Test: qHTS for inhibitors of binding or entry into cells for Marburg Virus
Details: Marburg virus pseudotyped entry inhibition, cell reporter; activity change, negative = inhibition: at 37.8 µM (top of the series) unless noted
On the % scale 0 is the no-effect control and ±100 the full control effect; potency means the concentration at half of the fitted maximal effect.

SMILES | Potency | activity change, negative = inhibition
CC(=O)Nc1ccc(-c2nnc(SCc3c(C)cc(C)cc3C)n2C)cc1 | inconclusive: 3.66 µM [inhibitor, partial curve, poor fit] | 
NS(=O)(=O)c1ccc(NC(=S)NC(=O)c2ccc3c(c2)OCO3)cc1 |  | inconclusive: 7.91% [activator] [at 46.1 µM]
COc1ccc(-c2cc(C(=O)O)c(C)o2)cc1OC | inconclusive: 14.6 µM [inhibitor, single point] | 
O=C(NCc1nc2ccccc2[nH]1)c1c(F)c(F)c(F)c(F)c1F | inconclusive: 3.55 µM [inhibitor, single point] | 
Cc1cc(C(=O)OCC(=O)Nc2cc(S(=O)(=O)N3CCOCC3)ccc2Cl)c(C)o1 | inconclusive: 12.6 µM [inhibitor, partial curve, poor fit] | 
O=C(Cc1cccs1)NCc1cc(Cl)cc(Cl)c1 | inconclusive: 14.1 µM [activator, partial curve, poor fit] | 
O=C(NN1CCOCC1)c1cccc(COc2cccc(Br)c2)c1 |  | inactive: 9.95% [at 46.1 µM]
CN(C)S(=O)(=O)c1cccc(NC(=O)c2cccc(S(=O)(=O)N3CCCCC3)c2)c1 | inconclusive: 25.1 µM [inhibitor, partial curve, poor fit] | 
CCOC(=O)c1sc2nc(SCC(=O)NCc3ccco3)n(Cc3ccccc3)c(=O)c2c1C |  | inconclusive: 0.406% [activator]
Cc1c([N+](=O)[O-])cc(C(=O)Oc2ccc(Br)cc2C(=S)N2CCCCC2)cc1[N+](=O)[O-] | inconclusive: 3.98 µM [inhibitor, full curve, poor fit] | 
C[C@@H]1C=C[C@](Cc2ccccc2)(C(=O)NCC2CC2)N1C(=O)c1ccccc1 |  | inactive: 16.7%
CCOC(=O)CC1C(=O)NC2CCCCC2N1C(=O)Nc1ccc(Cl)cc1 (configuration not stated) |  | inactive: 12.9%
CCCCC(=O)OC1=C(C(C)=O)N(Cc2ccccc2)S(=O)(=O)c2ccccc21 |  | inactive: -1.9% [at 46.1 µM]
Cc1cc(/C=C(/C#N)c2cccc(F)c2)c(C)n1-c1cccnc1 | inconclusive: 32.6 µM [inhibitor, single point] | 
O=C(NCC(c1cccs1)N1CCOCC1)c1ccc(Cl)c(S(=O)(=O)N2CCOCC2)c1 (configuration not stated) | inconclusive: 20 µM [inhibitor, single point] | 
CCc1ccc(C(=O)Nc2nnn(CC)n2)cc1 | inconclusive: 32.6 µM [inhibitor, single point] | 
COc1ccc(OC)c(NC(=O)c2ccc(S(=O)(=O)N3CCOCC3)cc2)c1 |  | inactive: 11.4% [at 46.1 µM]
CCCCc1ccc2[nH]cc(CCN)c2c1 | inconclusive: 18.3 µM [inhibitor, single point] | 
O=C(N/N=C1/CC2CCC1C2)c1cc2ccccc2cc1O (configuration not stated) | inconclusive: 14.1 µM [activator, single point] | 
O=C(NC1CCCCC1)NC1CC2CCCC(C1)N2C1CCCC1 (configuration not stated) | inconclusive: 2.82 µM [inhibitor, partial curve, poor fit] | 
CC(C)[C@H](NC(=O)c1ccccc1Br)C(=O)OCc1nc2ccsc2c(=O)[nH]1 |  | inactive: -10.8% [at 46.1 µM]

SMILES | Potency | activity change, negative = inhibition
O=C(N/N=C1/CC2C=CCC12)c1ccco1 (configuration not stated) | inconclusive: 2.24 µM [activator, full curve, poor fit] | 
COc1cc(/C=C/C(=O)OCC(=O)Nc2cccc(Oc3ccccc3)c2)ccc1O | inconclusive: 35.5 µM [inhibitor, single point] | 
CN(C)S(=O)(=O)c1cccc(NC(=O)COC(=O)CCC(=O)c2ccc(F)cc2)c1 | inconclusive: 1.58 µM [inhibitor, partial curve, poor fit] | 
CCCSc1nnc(Cc2cc(=O)[nH]c(=O)[nH]2)n1-c1cc(C)ccc1C | inconclusive: 14.1 µM [activator, single point] | 
Cc1ccn2c(Nc3ccc(F)cc3)c(-c3ccccn3)nc2c1 |  | inactive: 4.78% [at 46.1 µM]
Cc1ccc(C(C)NC(=O)/C(C#N)=C\c2c(C)[nH]c3ccccc23)cc1 (configuration not stated) | inconclusive: 23.1 µM [inhibitor, single point] | 
O=C(CCc1nc(-c2ccccc2Cl)no1)NCc1ccco1 | inconclusive: 3.55 µM [activator, single point] | 
CCCCN(C)Cc1c(C)[nH]c2ccccc2c1=O | inconclusive: 11.2 µM [inhibitor, partial curve, poor fit] | 
C[C@]12CCC3C(C(=O)C[C@H]4C[C@@H](O)CC[C@]34C)C1CCC2=O (some centres not stated) | inconclusive: 5.62 µM [inhibitor, single point] | 
Cc1ccc(C)c(SCC(=O)NC(=O)NCc2ccccc2)c1 |  | inactive: -12.3%
CC(=O)c1cccc(NC(=O)c2cc(C)nn2-c2ccccc2)c1 | inconclusive: 35.5 µM [inhibitor, single point] | 
CCOP(=O)(OCC)C(NC(=O)Nc1ccccc1)c1ccccc1 (configuration not stated) | inconclusive: 11.2 µM [activator, single point] | 
Cc1ccc(S(=O)(=O)N2CCN(C(=O)CCc3nc4ccccc4c(=O)[nH]3)CC2)c(C)c1 |  | inactive: -28.8% [at 46.1 µM]
Cc1cccc(NC(=O)C2CCCN2S(=O)(=O)c2ccc(F)cc2)c1C (configuration not stated) | inconclusive: 1.03 µM [inhibitor, full curve, poor fit] | 
COc1ccc(OC)c(/C=N\NC(=O)CC(=O)NCCc2ccccc2)c1 | inconclusive: 1.26 µM [activator, partial curve, poor fit] | 
CSc1ccc(CCNC(=O)Cn2ncc3c(=O)oc4ccccc4c32)cc1 |  | inactive: 2.91% [at 46.1 µM]
O=C1/C(=C/c2cccc(O)c2)SC(=S)N1CC1CCCO1 (configuration not stated) |  | inactive: -0.557% [at 46.1 µM]
C=CCC(Nc1ccc(OC)cc1)(C(=O)OCC)c1ccccc1 (configuration not stated) | inconclusive: 3.35 µM [activator, partial curve, poor fit] | 
CC1CCN(C(=O)c2cccc(S(=O)(=O)N3CCCc4ccccc43)c2)CC1 | inconclusive: 0.794 µM [inhibitor, full curve, poor fit] | 
COc1cc(CNCCSc2nnnn2C)cc(Br)c1OCc1ccc(F)cc1 | inconclusive: 14.1 µM [inhibitor, single point] | 
CN(CCc1ccccn1)C1CC(=O)N(c2ccc(Cl)cc2)C1=O (configuration not stated) | inconclusive: 1.26 µM [activator, single point] | 

Laid out differently: three of the compounds above

| SMILES | Potency | activity change, negative = inhibition |
| --- | --- | --- |
| O=C(CCc1nc(-c2ccccc2Cl)no1)NCc1ccco1 | inconclusive: 3.55 µM [activator, single point] |  |
| CCCCN(C)Cc1c(C)[nH]c2ccccc2c1=O | inconclusive: 11.2 µM [inhibitor, partial curve, poor fit] |  |
| C[C@]12CCC3C(C(=O)C[C@H]4C[C@@H](O)CC[C@]34C)C1CCC2=O (some centres not stated) | inconclusive: 5.62 µM [inhibitor, single point] |  |
